In patent US11564914B2, “Methods of treating bone loss” (THE REGENTS OF THE UNIVERSITY OF CALIFORNIA, priority 2016, dated 2023):
For at least one compound, name, drawing or mass did not settle the structure.

Assays:
[1] = system: p38 and JNK1/2; assay: Western blotting of p38 and JNK1/2 phosphorylation in gingival tissue; format: in vivo, mouse; details: infected mice, 15 days treatment
[2] = system: c-Caspase 3; assay: Western blotting of cleaved Caspase-3 in gingival tissue; format: in vivo, mouse; details: infected mice, 15 days treatment; versus vehicle control group
[3] = system: mouse model of periodontitis induced by infection with A. actinomycetemcomitans; assay: alveolar bone loss in mouse periodontitis model; format: in vivo; details: infected mice; TPPU 1 mg/kg/day oral gavage, EET-methyl esters 1 μg/kg/day; 15 days
[4] = system: RANK, RANKL, OPG and MCP-1; assay: Western blotting of osteoclastogenesis-related factors in gingival tissue; format: in vivo, mouse; details: infected mice, 15 days treatment
[5] = system: A. actinomycetemcomitans; assay: bacterial viability of A. actinomycetemcomitans cultures; format: cell-based, Aggregatibacter actinomycetemcomitans; details: TPPU 10 μM in PEG400, 37° C., 24 hours, anaerobic

With CCC(=O)N1CCC(NC(=O)Nc2ccc(OC(F)(F)F)cc2)CC1 [TPPU, 1-trifluoromethoxyphenyl-3-(1-propionylpiperidin-4-yl) urea] the “phosphorylation of p38 and JNK in gingival tissue” value [1] was “phosphorylation of both kinases were greatly reduced”, the “levels of c-Caspase-3 in gingival tissue” value [2] was “significantly lower levels of c-Caspase-3” and the “alveolar bone loss (distance between cement-enamel junction and alveolar bone crest)” value [3] was “significantly lower bone loss than the untreated infected animals”. The “expression of RANK, RANKL, OPG and MCP-1 in the gum tissue” value [4] was “significantly reduced the expression of these biomarkers” and the “bacteriostatic or bactericidal effect on A. actinomycetemcomitans cultures” value [5] was “did not have bacteriostatic or bactericidal effect”.
